The source of these data is article PMC12557367 (Journal of Medicinal Chemistry, 2025).

Numbered stars: 1 amine (or outer) side, 2 acyl side, 3 side chain; on linkers, the order of the positions; unused ones are H or OH. Bridge positions count the residues as written; N and C are the ends. Square brackets hold non-standard residues; d marks the D form. * marks the point of attachment. TATA = O=C(CC[*:1])N1CN(C(=O)CC[*:2])CN(C(=O)CC[*:3])C1; X1 = O=C(O)CN1CCN(CC(=O)O)CCN([C@H](CCC(=O)*)C(=O)O)CC1; 1Nal = N[C@@H](Cc1cccc2ccccc12)C(=O)O; Hyp = O=C(O)[C@@H]1C[C@@H](O)CN1; hArg = N=C(N)NCCCC[C@H](N)C(=O)O; SeMet = C[Se]CC[C@H](N)C(=O)O

The nature of the data set: general procedure: Fmoc solid-phase peptide synthesis; Fmoc-Rink Amide resin (2-ClTrtCl resin for 8d); HATU/DIPEA. The note with it: whole synthesis; for final HPLC purity: 230 nm; for isolated yield: on resin loading.

With “CSCC[C@@H]1NC(=O)[C@@H]2CSCCC(=O)N3CN(CN(C3)C(=O)CCSC[C@H](NC(C)=O)C(=O)N3CCC[C@H]3C(=O)N[C@@H](Cc3cccc4ccccc34)C(=O)N[C@H](CC(=O)O)C(=O)N2)C(=O)CCSC[C@@H](C(N)=O)NC(=O)[C@H](Cc2c[nH]c3ccccc23)NC(=O)[C@@H]2C[C@@H](O)CN2C(=O)[C@@H]2CCCN2C(=O)[C@H]([C@@H](C)O)NC(=O)[C@H](CO)NC(=O)[C@H](Cc2c[nH]c3ccccc23)NC(=O)[C@H](CC(=O)O)NC(=O)[C@H](CCCCNC(=N)N)NC1=O”, the “final HPLC purity” value is recorded as greater than 97% and the isolated yield was 10%.

Take “C[Se]CC[C@@H]1NC(=O)[C@@H]2CSCCC(=O)N3CN(CN(C3)C(=O)CCSC[C@H](NC(=O)CC[C@H](C(=O)O)N3CCN(CC(=O)O)CCN(CC(=O)O)CC3)C(=O)N3CCC[C@H]3C(=O)N[C@@H](Cc3cccc4ccccc34)C(=O)N[C@H](CC(=O)O)C(=O)N2)C(=O)CCSC[C@@H](C(N)=O)NC(=O)[C@H](Cc2c[nH]c3ccccc23)NC(=O)[C@@H]2C[C@@H](O)CN2C(=O)[C@@H]2CCCN2C(=O)[C@H]([C@@H](C)O)NC(=O)[C@H](CO)NC(=O)[C@H](Cc2c[nH]c3ccccc23)NC(=O)[C@H](CC(=O)O)NC(=O)[C@H](CCCCNC(=N)N)NC1=O (X1-CP[1Nal][dD]C[SeMet][hArg]DWSTP[Hyp]WC-NH2; linker 1-5-15 via TATA)”: the “final HPLC purity” value is reported as greater than 61% and the isolated yield was 6%.
